Only a part is listed here, and it is no random draw. The calls were merged from several studies; some rest on single wells. This is one part of the list.
How the values were obtained:
Conditions in all cases: stereoisomer not certain
OR52E6 (Homo sapiens) = OR52E6 (Homo sapiens) (UniProt Q96RD3)
Outline: (§1)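 Transient luciferase assays in mammalian cell lines were common, though methods varied by source. The values come from published papers and their supplementary material, with extra details from the original authors when needed. Responsive refers to a measured signal the original authors judged statistically different from baseline, and non-responsive (inactive) to the remainder.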

By UniProt entry, the sequences of proteins in these tests, tags left out. Where a name states a change or a piece, a line headed by the entry shows the natural chain unless it says otherwise.
UniProt Q96RD3: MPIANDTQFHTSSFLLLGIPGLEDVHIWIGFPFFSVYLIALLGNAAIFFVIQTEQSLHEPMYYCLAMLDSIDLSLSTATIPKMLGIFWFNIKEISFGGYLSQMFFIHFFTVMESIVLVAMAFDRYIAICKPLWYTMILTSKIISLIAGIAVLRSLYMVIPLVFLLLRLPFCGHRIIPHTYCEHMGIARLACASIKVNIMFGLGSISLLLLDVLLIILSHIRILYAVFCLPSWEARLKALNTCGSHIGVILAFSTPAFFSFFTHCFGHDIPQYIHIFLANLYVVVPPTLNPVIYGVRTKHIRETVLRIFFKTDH
UniProt Q8NGK6: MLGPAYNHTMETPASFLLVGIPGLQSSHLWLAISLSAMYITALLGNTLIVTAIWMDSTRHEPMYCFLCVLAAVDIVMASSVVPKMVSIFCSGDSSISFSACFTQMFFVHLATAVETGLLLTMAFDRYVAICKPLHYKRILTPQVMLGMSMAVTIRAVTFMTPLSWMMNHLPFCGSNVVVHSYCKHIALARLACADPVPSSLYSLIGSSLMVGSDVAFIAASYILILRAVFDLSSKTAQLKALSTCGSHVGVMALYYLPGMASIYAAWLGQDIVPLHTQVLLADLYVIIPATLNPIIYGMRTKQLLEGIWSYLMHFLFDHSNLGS
UniProt Q8NH60: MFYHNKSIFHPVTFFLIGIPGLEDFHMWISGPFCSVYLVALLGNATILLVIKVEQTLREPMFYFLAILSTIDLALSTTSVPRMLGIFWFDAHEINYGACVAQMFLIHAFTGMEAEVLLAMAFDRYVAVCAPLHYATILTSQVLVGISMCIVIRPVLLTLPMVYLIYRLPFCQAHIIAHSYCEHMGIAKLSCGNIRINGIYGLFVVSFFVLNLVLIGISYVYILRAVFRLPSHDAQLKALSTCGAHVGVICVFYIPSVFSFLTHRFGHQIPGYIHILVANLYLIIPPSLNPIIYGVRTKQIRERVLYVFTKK

OR52H1 (Homo sapiens) = molecular target: T1, OR52H1 (Homo sapiens) (UniProt Q8NGJ2)
T1 sequence (whole entry): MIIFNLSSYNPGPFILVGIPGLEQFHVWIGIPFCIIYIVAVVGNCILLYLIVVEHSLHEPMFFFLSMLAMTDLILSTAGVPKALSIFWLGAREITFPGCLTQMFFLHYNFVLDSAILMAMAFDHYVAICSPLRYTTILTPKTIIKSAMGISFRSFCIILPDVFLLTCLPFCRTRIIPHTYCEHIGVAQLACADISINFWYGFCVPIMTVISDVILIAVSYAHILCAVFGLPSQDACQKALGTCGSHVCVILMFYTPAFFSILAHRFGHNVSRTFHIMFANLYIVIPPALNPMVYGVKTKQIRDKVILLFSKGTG
Outline: as §1

OR52K1 (Homo sapiens) = molecular target: T2, OR52K1 (Homo sapiens) (UniProt Q8NGK4)
T2 sequence (whole entry): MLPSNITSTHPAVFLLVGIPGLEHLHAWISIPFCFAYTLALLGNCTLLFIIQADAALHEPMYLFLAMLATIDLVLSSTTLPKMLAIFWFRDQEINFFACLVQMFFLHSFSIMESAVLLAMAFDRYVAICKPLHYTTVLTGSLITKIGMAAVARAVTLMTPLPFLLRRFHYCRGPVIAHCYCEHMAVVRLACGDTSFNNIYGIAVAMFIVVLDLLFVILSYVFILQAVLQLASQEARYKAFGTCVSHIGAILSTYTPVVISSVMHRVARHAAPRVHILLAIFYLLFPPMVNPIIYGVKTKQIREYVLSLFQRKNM
Outline: as §1

OR52K2 (Homo sapiens) = molecular target: T3, OR52K2 (Homo sapiens) (UniProt Q8NGK3)
T3 sequence (whole entry): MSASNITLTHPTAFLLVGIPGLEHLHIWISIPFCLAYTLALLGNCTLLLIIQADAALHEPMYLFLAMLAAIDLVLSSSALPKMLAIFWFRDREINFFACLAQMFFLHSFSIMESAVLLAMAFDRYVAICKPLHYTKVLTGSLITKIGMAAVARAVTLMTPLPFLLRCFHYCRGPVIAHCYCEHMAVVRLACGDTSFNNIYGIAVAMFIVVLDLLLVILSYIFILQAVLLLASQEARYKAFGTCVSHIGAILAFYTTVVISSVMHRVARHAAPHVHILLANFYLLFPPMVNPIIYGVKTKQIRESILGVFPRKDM
Outline: as §1

OR52I1 (Homo sapiens) = OR52I1 (Homo sapiens) (UniProt Q8NGK6)
Outline: as §1

OR52I2 (Homo sapiens) = molecular target: T4, OR52I2 (Homo sapiens) (UniProt Q8NH67)
T4 sequence (whole entry): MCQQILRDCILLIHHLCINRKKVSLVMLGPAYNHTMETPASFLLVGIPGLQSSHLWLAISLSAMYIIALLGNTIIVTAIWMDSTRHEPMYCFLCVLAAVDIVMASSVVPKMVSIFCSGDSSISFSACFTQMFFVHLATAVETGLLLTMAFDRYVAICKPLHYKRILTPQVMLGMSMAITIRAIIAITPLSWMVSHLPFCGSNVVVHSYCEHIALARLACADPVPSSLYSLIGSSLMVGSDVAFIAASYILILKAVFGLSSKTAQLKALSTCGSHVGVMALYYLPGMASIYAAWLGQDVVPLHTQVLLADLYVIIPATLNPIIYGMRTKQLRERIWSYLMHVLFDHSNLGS
Outline: as §1

OR52J3 (Homo sapiens) = OR52J3 (Homo sapiens) (UniProt Q8NH60)
Outline: as §1

OR52L1 (Homo sapiens) = molecular target: T5, OR52L1 (Homo sapiens) (UniProt Q8NGH7)
T5 sequence (whole entry): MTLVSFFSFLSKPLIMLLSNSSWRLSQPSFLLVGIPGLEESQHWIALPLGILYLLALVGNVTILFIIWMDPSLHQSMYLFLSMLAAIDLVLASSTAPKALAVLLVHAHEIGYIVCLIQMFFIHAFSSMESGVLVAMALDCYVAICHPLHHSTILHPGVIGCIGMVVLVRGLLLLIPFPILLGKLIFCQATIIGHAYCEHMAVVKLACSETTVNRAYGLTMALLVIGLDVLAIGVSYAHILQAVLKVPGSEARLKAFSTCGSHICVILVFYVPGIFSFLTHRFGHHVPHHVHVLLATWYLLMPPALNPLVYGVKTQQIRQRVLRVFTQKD
Outline: as §1

OR52M1 (Homo sapiens) = molecular target: T6, OR52M1 (Homo sapiens) (UniProt Q8NGK5)
T6 sequence (whole entry): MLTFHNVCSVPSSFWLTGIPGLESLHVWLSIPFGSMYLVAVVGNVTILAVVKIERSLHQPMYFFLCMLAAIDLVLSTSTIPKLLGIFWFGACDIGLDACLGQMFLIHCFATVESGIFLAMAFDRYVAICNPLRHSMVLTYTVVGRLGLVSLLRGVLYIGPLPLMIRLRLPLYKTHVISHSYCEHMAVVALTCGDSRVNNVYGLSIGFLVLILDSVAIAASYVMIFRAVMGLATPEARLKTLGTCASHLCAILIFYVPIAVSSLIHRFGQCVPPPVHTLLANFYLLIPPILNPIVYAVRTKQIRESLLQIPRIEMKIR
Outline: as §1
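Further: active if original authors judged signal statistically different from baseline.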

Row | Structure (SMILES) | odorant receptor agonist call (OR52E6 (Homo sapiens)) | odorant receptor agonist call (OR52H1 (Homo sapiens)) | odorant receptor agonist call (OR52K1 (Homo sapiens)) | odorant receptor agonist call (OR52K2 (Homo sapiens)) | odorant receptor agonist call (OR52I1 (Homo sapiens)) | odorant receptor agonist call (OR52I2 (Homo sapiens)) | odorant receptor agonist call (OR52J3 (Homo sapiens)) | odorant receptor agonist call (OR52L1 (Homo sapiens)) | odorant receptor agonist call (OR52M1 (Homo sapiens))
1 | c1cnccn1 | inactive | inactive | inactive | inactive |  |  |  |  | 
2 | CC(C)CCC(=O)O | inactive | inactive | inactive | inactive |  |  |  |  | 
3 | CCCCCCCC=O | inactive | inactive | inactive | inactive |  |  |  |  | 
4 | CCCCCCCC=CC=O | inactive | inactive | inactive | inactive |  |  |  |  | 
5 | CCCCCCCCCCC=O | inactive | inactive | inactive | inactive |  |  |  |  | 
6 | C=CC(C)(O)CCC=C(C)C (configuration not stated) | inactive | active | inactive | inactive |  |  |  |  | 
7 | CCC=CCCO | inactive | active | inactive | inactive |  |  |  |  | 
8 | CC=Cc1ccc(O)c(OC)c1 | inactive | active | inactive | inactive |  |  |  |  | 
9 | CCCC(=O)O | inactive | active | inactive | inactive | active | inactive | inactive | inactive | inactive
10 | CC1COCc2cc3c(cc21)C(C)(C)C(C)C3(C)C (configuration not stated) | inactive | active | inactive | active |  |  |  |  | 
11 | O=C1CCCCCCCCCCCC(=O)OCCO1 | inactive | inactive | inactive | inactive |  |  |  |  | 
12 | O=C1CCCCCCCCCCCCCCO1 | inactive | inactive | inactive | inactive |  |  |  |  | 
13 | CC1CCC(C(C)C)C(O)C1 (configuration not stated) | inactive | inactive | inactive | inactive |  |  |  |  | 
14 | CC(C)(C)c1ccc(CCC=O)cc1 | inactive | inactive | inactive | inactive |  |  |  |  | 
15 | CC(C)CC(=O)O | inactive | inactive | inactive | inactive |  |  |  |  | 
16 | CC(C)C=O | inactive | inactive | inactive | inactive |  |  |  |  | 
17 | CC(=O)C(C)=O | inactive | inactive | inactive | inactive | inactive | inactive | active | inactive | inactive
18 | COC(=O)c1ccccc1O | inactive | inactive | inactive | inactive |  |  |  |  | 

Laid out differently: results already given.
Row	Structure (SMILES)	odorant receptor agonist call (OR52E6 (Homo sapiens))	odorant receptor agonist call (OR52H1 (Homo sapiens))	odorant receptor agonist call (OR52K1 (Homo sapiens))	odorant receptor agonist call (OR52K2 (Homo sapiens))	odorant receptor agonist call (OR52I1 (Homo sapiens))	odorant receptor agonist call (OR52I2 (Homo sapiens))	odorant receptor agonist call (OR52J3 (Homo sapiens))	odorant receptor agonist call (OR52L1 (Homo sapiens))	odorant receptor agonist call (OR52M1 (Homo sapiens))
14	CC(C)(C)c1ccc(CCC=O)cc1	inactive	inactive	inactive	inactive					
15	CC(C)CC(=O)O	inactive	inactive	inactive	inactive					
16	CC(C)C=O	inactive	inactive	inactive	inactive					
